Assay results published in the supplement of paper PMC3334620.
The full ranking holds about 33,000 sequences; the median of “E-score (-0.5 to 0.5)” is about -0.0059, and the highest 2% start at about 0.26. The list shows a part of the results.

target: T1, Cin5 (UniProt P40917); assay: PBM E-score (8-mer binding enrichment) (E-score (-0.5 to 0.5)); higher = stronger / more preferred TF binding; conditions: protein concentration: 100 nM; construct: GST-full length
T1 sequence: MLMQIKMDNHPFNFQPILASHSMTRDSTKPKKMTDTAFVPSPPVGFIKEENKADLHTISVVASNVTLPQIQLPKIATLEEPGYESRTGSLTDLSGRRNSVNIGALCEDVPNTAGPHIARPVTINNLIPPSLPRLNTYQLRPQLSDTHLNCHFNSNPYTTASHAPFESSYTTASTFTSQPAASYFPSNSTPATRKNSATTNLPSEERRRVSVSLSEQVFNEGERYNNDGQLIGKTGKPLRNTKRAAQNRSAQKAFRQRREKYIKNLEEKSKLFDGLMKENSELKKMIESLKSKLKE
Procedure, shortened: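 PURExpress in vitro transcription/translation supplied GST-tagged yeast transcription factors, either full-length or DNA-binding domain. Applied at about 100-200 nM to universal all-10-mer Agilent arrays double-stranded by primer extension, the bound protein was detected with fluorescent anti-GST. E-scores, modified Wilcoxon-Mann-Whitney statistics, were given by the Universal PBM Analysis Suite to ungapped eight-base words pooled with their reverse complements after masliner normalisation.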

| Sequence | PBM E-score |
| --- | --- |
| ACTCTGGG | -0.0166 |
| AGCGCTCG | -0.191 |
| CCTCGCAC | -0.0617 |
| TCTGACCA | 0.0096 |
| CCCTCGGA | -0.16 |
| CAGGCCGA | -0.0921 |
| ACAACGAT | 0.058 |
| CTTCTCAC | 0.0781 |
| CGACCCAG | -0.145 |
| AGCCGGCG | -0.032 |
| ACACGACA | 0.207 |
| GTAGAGCA | -0.136 |
| TCCGTAAA | -0.0225 |
| AAATCGAC | 0.0909 |
| AATTGGGT | 0.319 |
| GAGAGATC | 0.107 |
| TCGATGCA | 0.152 |
| CGTAGCAC | -0.0485 |
| AAACGCTC | -0.173 |
| CTGACGTC | 0.035 |
| ATCGCCCA | -0.11 |
| AGACAAGC | -0.013 |
| CTTCGGAC | -0.0638 |
| TGATACCA | 0.101 |
| GCGGCGAC | 0.0144 |

| Sequence | PBM E-score |
| --- | --- |
| ACAACCAC | 0.0998 |
| CCACCGGA | 0.0953 |
| ATCATTGC | 0.0191 |
| ATGGATTA | 0.0354 |
| ACATGGCT | -0.0786 |
| CCTCATAA | -0.0599 |
| AGTTGGTG | -0.0389 |
| AATCGTCC | 0.0766 |
| CCAGTGAG | -0.2 |
| CCTGTCCA | -0.264 |
| CTAACATC | 0.034 |
| ACAAGGCT | -0.224 |
| CCACCGCG | 0.0785 |
| TACGTCGA | -0.0577 |
| TACTCCGA | 0.0999 |
| CTGGGATC | -0.242 |
| GCCCGGAA | -0.0145 |
| ACGTCCTG | -0.179 |
| CAGAATAG | 0.0117 |
| GCGTTGGA | -0.18 |
| ATGAGCCC | -0.154 |
| CCAGCCTC | -0.246 |
| CATTATAC | 0.287 |
| CTCATTCA | 0.0891 |
| CTTAAGAA | 0.0235 |

| Sequence | PBM E-score |
| --- | --- |
| GAGCCTGC | -0.25 |
| AAACGGAC | -0.129 |
| TCATGTCA | 0.117 |
| CCAAGTCC | -0.121 |
| AAGGCGCC | -0.0857 |
| TAAAGCCA | -0.0479 |
| CCGGGGGA | -0.227 |
| AGACAGGA | -0.0938 |
| GAGGCATC | -0.276 |
| ATCGCTGC | 0.0127 |
| ATGCAATG | 0.035 |
| GAAACGCC | 0.114 |
| AGTTTCGG | 0.0242 |
| TGCAGCAA | 0.0141 |
| GGGGTTTA | -0.169 |
| AAGGGGCA | -0.183 |
| ACCCTACT | -0.0325 |
| CTGATCTC | 0.00613 |
| CAAATCTC | 0.0717 |
| GCACAACC | -0.128 |
| ATTATGGA | 0.131 |
| AAATGGGT | 0.135 |
| CAGTTGCC | -0.0581 |
| CAAGCTGA | 0.233 |
| CCCTGTGC | -0.18 |

| Sequence | PBM E-score |
| --- | --- |
| GATGTTGA | 0.113 |
| CTTCCTTA | -0.0223 |
| GATTCTGA | -0.157 |
| ATCTTTAC | 0.104 |
| CAATACTG | -0.0857 |
| AACGTAAG | 0.274 |
| CTTGCAGC | -0.192 |
| GCGTACAC | -0.123 |
| ATCGGATG | 0.0979 |
| GCAAGCTA | -0.0898 |
| ATTAGATC | 0.145 |
| CACCTACA | -0.127 |
| AACTGACT | -0.0943 |
| ACGATCCG | 0.0588 |
| ATTGCGTG | -0.00281 |
| ACCACAAG | -0.117 |
| CGGTCCGC | -0.178 |
| ATGTCGAG | -0.0728 |
| GGTCGAGA | -0.196 |
| TTAGCTAA | 0.343 |
| ACTACAAA | 0.187 |
| AAGTAATA | 0.247 |
| AGTTCAAT | 0.0142 |
| CCAAGAAC | -0.132 |
| ACCTAATG | -0.134 |

| Sequence | PBM E-score |
| --- | --- |
| CCGCCTAC | 0.0336 |
| GTCCACAA | -0.125 |
| GCACACAC | -0.0905 |
| CCCAAAAA | -0.0897 |
| TAATCGTA | 0.247 |
| TCCTGAGA | -0.137 |
| AGAGGATC | -0.116 |
| GTATGCCA | -0.145 |
| AACGCGGT | -0.0452 |
| CAATCTTA | 0.0906 |
| ACTTTCCC | -0.0967 |
| CTTGTTTA | -0.0376 |
| CCGTGATC | -0.0747 |
| ACCTTGCA | -0.163 |
| ACCAGCGG | -0.124 |
| TCAACGAA | -0.0121 |
| AGCGAAAA | 0.0839 |
| ATGGCCAG | 0.0918 |
| AGGTAACT | 0.113 |
| CCTCAAGA | -0.0822 |
| CCCTTTCC | -0.307 |
| ACCAACAA | 0.167 |
| AAAGAGAA | 0.104 |
| AGTATGTC | 0.149 |
| GCCCAAAC | -0.0563 |

Reprinted at random: 2 records from the list, in no set order.

| Sequence | PBM E-score |
| --- | --- |
| AGCGAAAA | 0.0839 |
| GTCCACAA | -0.125 |

More records

| Sequence | PBM E-score |
| --- | --- |
| GAAATATC | 0.111 |
| AGCCGGCC | 0.0774 |
| ACCTACTC | 0.0706 |
| CACGGTCA | -0.12 |
| AAGTCAGA | 0.0006 |
| AAGCTTGA | 0.0619 |
| ATAAGCTA | 0.2 |
| CGCCAGTC | -0.182 |
| ACTTGCAG | -0.0905 |
| CTTAACCC | -0.21 |
| AAAGTCTT | -0.0653 |
| TTGAAAAA | 0.101 |
| AGAGAAGA | 0.00912 |
| CCCCCAGA | -0.475 |
| ACTCTACT | 0.0776 |
| ACGACGAA | 0.0953 |
| ATTGCGTC | 0.128 |
| CACCCAAC | -0.03 |
| AACTTATG | 0.153 |
| CGTAATTC | 0.228 |
| TACCCGTA | -0.00613 |
| CTCCTACC | -0.304 |
| ATATCGGA | 0.0984 |
| CAGCCTGG | -0.0233 |
| GTACGGAA | 0.175 |

Quoted from the listing.
PBM E-score, AAGCTTGA is entered as 0.0619
PBM E-score, CTCCTACC is entered as -0.304
PBM E-score, GAAATATC is entered as 0.111
PBM E-score, ATATCGGA is entered as 0.0984
PBM E-score, ACTCTACT is entered as 0.0776
PBM E-score, ATAAGCTA is entered as 0.2
PBM E-score, AGAGAAGA is entered as 0.00912

Remaining list, next part.

| Sequence | PBM E-score |
| --- | --- |
| AGACTGTG | -0.116 |
| AGTTGTTC | 0.0659 |
| CAAAAAGG | -0.138 |
| ATATCCGC | 0.0849 |
| CTAATGTC | 0.121 |
| ATCAGCCA | -0.0446 |
| TACGGGGA | -0.116 |
| AGGCCATC | -0.0378 |
| AGCAGTTC | 0.00918 |
| AAATGGAC | 0.122 |
| TCAGGTAA | 0.125 |
| CGTTATAA | 0.0891 |
| ATTAAAGC | 0.00379 |
| CAGCGCTC | -0.141 |
| TCACTCCA | 0.0865 |
| CGCGTAAC | -0.0538 |
| CGGTCAGA | -0.146 |
| CTTCGCGA | 0.00601 |
| TCTTATAA | 0.114 |
| AAAAGGGT | -0.0833 |
| TCGGATAA | 0.102 |
| AGTCCCCA | -0.191 |
